# Experimental data taken from publication PMC7822537.
# Results are given in words; binding and its absence hold for the method and conditions named. In cells and extracts the contact can be indirect. Binding can be weak; no strength is given.
# Target: βC1-cEYFP (Tomato yellow leaf curl China virus betasatellite (TYLCCNB))
# Test: split reporter; BiFC: cEYFP and nEYFP fusions agroinfiltrated in N. benthamiana leaves; confocal microscopy two days after infiltration; normal light
binder,measurement,value
"RSAEVHNLSERRRRDRINEKMRALQELIPNCNKVDKASMLDEAIEYLKSL (domain or fragment, UniProt O80536 343-392) [nEYFP-AtPIF3^bHLH]",binding,binds
